Test results taken from PubChem BioAssay AID1671190 (National Center for Advancing Translational Sciences (NCATS), 2021).
Among all 580,000 compounds or so, about 6,100 (1.1%) were called active. Roughly 15% stayed inconclusive and do not appear here. Calls come from the whole dose curve; as a rule, active = well fitted inhibition curve with a large enough effect; inconclusive = small, poorly fitted or top-dose-only effect, or another doubt; inactive = no such curve, though single readings can be large or run the other way. The entries are a selection whose mix differs from that of the whole data set. Entries without a call were filed so in the source. Where a structure was tested more than once in an assay, its records may differ in their call.

Chains of the proteins cited; added tags and fusions are not shown.
UniProt P18054, whole entry, looked up: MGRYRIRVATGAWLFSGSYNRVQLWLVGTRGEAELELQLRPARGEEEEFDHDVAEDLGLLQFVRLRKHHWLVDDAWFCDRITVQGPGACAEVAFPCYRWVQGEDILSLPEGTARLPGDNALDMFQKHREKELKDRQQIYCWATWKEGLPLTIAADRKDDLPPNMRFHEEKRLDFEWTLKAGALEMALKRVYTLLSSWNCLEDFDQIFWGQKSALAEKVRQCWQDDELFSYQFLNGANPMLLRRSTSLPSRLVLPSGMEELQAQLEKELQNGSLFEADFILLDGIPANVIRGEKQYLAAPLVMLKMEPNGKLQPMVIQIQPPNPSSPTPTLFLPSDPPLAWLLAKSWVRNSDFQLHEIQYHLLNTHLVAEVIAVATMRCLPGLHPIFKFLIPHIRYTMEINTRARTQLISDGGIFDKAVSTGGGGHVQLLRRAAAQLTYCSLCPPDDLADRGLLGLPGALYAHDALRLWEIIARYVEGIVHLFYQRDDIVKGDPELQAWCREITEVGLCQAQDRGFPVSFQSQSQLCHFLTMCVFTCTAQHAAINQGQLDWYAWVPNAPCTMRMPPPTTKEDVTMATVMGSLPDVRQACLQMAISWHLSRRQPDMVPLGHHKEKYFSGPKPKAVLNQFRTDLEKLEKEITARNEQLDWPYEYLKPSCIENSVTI

Molecular target: Polyunsaturated fatty acid lipoxygenase ALOX12 (Homo sapiens) (UniProt P18054)
Experiment: Primary qHTS assay for inhibitors of human arachidonate 12S-lipoxygenase (ALOX12): Round 2
Conditions: purified 12hLO, xylenol orange hydroperoxide absorbance; activity change, negative = inhibition: at 0.00344 µM (top of the series)
Method in brief: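 Purified human 12hLO (150 nM final) in 25 mM Hepes, 0.01% Triton X-100, pH 7.0 was preincubated 15 min at room temperature with compound. Then 40 uM arachidonic acid was added, 30 min. Hydroperoxide was read by Fe-XO absorbance ratio 573/405 nm.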
% is set by controls: 0 for no effect and ±100 for the full control effect; potency is the fitted concentration of half-maximal effect.

SMILES | activity change, negative = inhibition [%] | Potency
COC(=O)/C=C\C(=O)OC | -10.5 | –
O=C(NC(=S)NCCC1=CCCCC1)c1ccco1 | – | active: 44.7 µM
CN(C)CCCN1c2ccccc2Sc2ccc(Cl)cc21 | -29.4 | –
O=C(COC(=O)C1CC2C=CC1C2)Nc1c(Br)cc([N+](=O)[O-])cc1Br (centres undefined) | – | active: 22.4 µM
CCOC(=O)c1[nH]c(C)c(/C(Br)=C/Br)c1C | – | active: 6.31 µM
Cc1cc(O)c2ccccc2c1O | 2.91 | –
Cc1cccc2sc(NC(=O)C3CCN(S(=O)(=O)c4cc([N+](=O)[O-])ccc4Cl)CC3)nc12 | – | active: 39.8 µM
C[N+](C)(C)CCOC(=O)CCC(=O)OCC[N+](C)(C)C | 8.93 | –
CCCCCCCCCCCCCCCCOP(=O)([O-])OCC[N+](C)(C)C | 7.55 | –
CCOc1ccc2nc3cc(N)ccc3c(N)c2c1 | -58.2 | –
CC(=O)OC[C@H]1O[C@@](COC(C)=O)(O[C@H]2O[C@H](COC(C)=O)[C@@H](OC(C)=O)[C@H](OC(C)=O)[C@H]2OC(C)=O)[C@@H](OC(C)=O)[C@@H]1OC(C)=O | 16.7 | –
O=C(COc1ccc(Cl)cc1)N1CCN(Cc2ccc3c(c2)OCO3)CC1 | -29.1 | –
CCN(CC)CCOC(=O)C(c1ccccc1)c1ccccc1 | -5.29 | –
OC(CCCN1CCCCC1)(c1ccccc1)c1ccccc1 | -11.1 | –
COc1cccc(CCC(=O)N2CCC3(CC2)NC(=O)N(c2cccc(F)c2)N3)c1 | – | active: 5.62 µM
Nc1nc2c(s1)C(c1ccccc1Cl)CC(=O)N2 (centres undefined) | – | active: 20 µM
COC(=O)c1cc(Cl)c(NC(C)=O)cc1OC | -20.6 | –
CC(C)(C)CC(C)(C)c1ccc(O)c(Cc2ccc(Cl)cc2Cl)c1 | 9.52 | –
Cc1ccc(S(=O)(=O)NC(=O)NN2CCCCCC2)cc1 | -4.28 | –
COc1cccc(OC)c1C(=O)N[C@@H]1C(=O)N2[C@@H]1SC(C)(C)[C@@H]2C(=O)O | 49.3 | –
CC(=O)CC/C=C(\C)CC/C=C(\C)CC/C=C(\C)CCC=C(C)C | 40.4 | –
CCCCNc1c(C(=O)OCC)c(C)nc2c1cnn2CC | 11.2 | –

SMILES | activity change, negative = inhibition [%] | Potency
COc1cc(NC(C)CCCN)c2ncccc2c1 (centres undefined) | 48.3 | –
CCCCC1(COC(=O)CCC(=O)O)C(=O)N(c2ccccc2)N(c2ccccc2)C1=O | 46.6 | –
O=c1[nH]c(=O)n([C@H]2C[C@H](O)[C@@H](CO)O2)cc1Br | 11.4 | –
Cc1[nH]cnc1-c1ccc(Cl)cc1 | -41.2 | –
CCOc1ccc(C(Nc2cccnc2)c2cc(Cl)c3cccnc3c2O)cc1 (centres undefined) | – | active: 10 µM
CN1CCN(c2ccc(NC(=O)c3ccc(-c4ccc(Br)cc4)o3)cc2)CC1 | – | active: 50.1 µM
NC(N)=Nc1nc(CSCC/C(N)=N/S(N)(=O)=O)cs1 | -18.7 | –
Cc1cc(-c2ccccc2)nnc1NCCN1CCOCC1 | -18.3 | –
CC(=O)O[C@@H]1C(=O)O[C@@H]2[C@H]1OC(=O)[C@@H]2OC(C)=O | -12.3 | –
CC/C(=C(/CC)c1ccc(O)cc1)c1ccc(O)cc1 | -20.1 | –
CSc1ccc2c(c1)N(CCC1CCCCN1C)c1ccccc1S2 (centres undefined) | 26.7 | –
NC(c1ccccc1)c1csc(Nc2cc(Oc3ccccc3)ncn2)n1 (centres undefined) | – | active: 35.5 µM
C#CCOCCOCCOCCNc1nc(N2CCN(C(=O)[C@H]([C@@H](C)CC)n3cc(CCCN=C(N)N)nn3)CC2)nc(N2CCN(C(=O)[C@H]([C@@H](C)CC)n3cc(CCC(=O)O)nn3)CC2)n1 | – | active: 10 µM
CC1(C)[C@@H](OC(=O)CCC(=O)O)CC[C@]2(C)[C@H]3C(=O)C=C4[C@@H]5C[C@@](C)(C(=O)O)CC[C@]5(C)CC[C@@]4(C)[C@]3(C)CC[C@@H]12 | 3.97 | –
Cc1cccc(N/N=C/c2ccncc2)c1 | – | active: 44.7 µM
CC(=O)OCC(=O)[C@@]1(OC(C)=O)[C@@H](C)C[C@H]2[C@@H]3C[C@H](F)C4=CC(=O)C=C[C@]4(C)[C@@]3(F)[C@@H](O)C[C@@]21C | 24.9 | –
CC(N=C(NC#N)Nc1ccncc1)C(C)(C)C (centres undefined) | -11 | –
CCCCOC(=O)CC(CC(=O)OCCCC)(OC(C)=O)C(=O)OCCCC | 18 | –
CCCOc1ccc(C(=O)OCCN(CC)CC)cc1N | 34.5 | –
Cc1cc(C)cc(NC(=S)Nc2ccc(Cl)c(Cl)c2)c1 | – | active: 39.8 µM
FC(F)(F)c1ccccc1/C=N/NC(=S)NCc1ccccc1 | – | active: 39.8 µM
CN(C)CC/C=C1/c2ccccc2COc2ccc(CC(=O)O)cc21 | 8.88 | –

Sorted by length of the SMILES (falling): some entries from above.
SMILES | activity change, negative = inhibition [%] | Potency
CCCCC1(COC(=O)CCC(=O)O)C(=O)N(c2ccccc2)N(c2ccccc2)C1=O | 46.6 | –
CN1CCN(c2ccc(NC(=O)c3ccc(-c4ccc(Br)cc4)o3)cc2)CC1 | – | active: 50.1 µM
CC(N=C(NC#N)Nc1ccncc1)C(C)(C)C (centres undefined) | -11 | –

Additional results follow:

SMILES | activity change, negative = inhibition [%] | Potency
COCCNc1cc(-c2c(C)noc2C)ncn1 | – | active: 39.8 µM
CCCCCN=C(N)N/N=C/c1c[nH]c2ccc(OC)cc12 | 12.4 | –
O=C(c1ccccc1)c1ccc2n1CCC2C(=O)O (centres undefined) | -0.123 | –
CC(C)(O)c1ccccc1CC[C@@H](SCC1(CC(=O)O)CC1)c1cccc(/C=C/c2ccc3ccc(Cl)cc3n2)c1 | -3.3 | –
Nc1ccc(C(=O)OCC(O)CO)cc1 (centres undefined) | -25.1 | –
C/C(=N\Nc1nc(-c2ccccc2)cs1)c1cccs1 | – | active: 44.7 µM
CC(=O)Oc1cccc(C)c1 | 10.2 | –
S=c1[nH]nc(-c2ccccc2)n1C1C=CCCC1 (centres undefined) | – | active: 44.7 µM
COc1cc(OC)nc(O[C@H](C(=O)O)C(OC)(c2ccccc2)c2ccccc2)n1 | -13.1 | –
Oc1ccc(Nc2nc(-c3ccc(F)cc3F)cs2)cc1 | – | active: 7.94 µM
NC1CCN(c2nc3c(cc2F)c(=O)c(C(=O)O)cn3-c2ccc(F)cc2F)C1 (centres undefined) | 25.4 | –
NC(=S)N/N=C/C1=C(c2ccccc2)C2C=CC1C2 (centres undefined) | – | active: 8.91 µM
Nc1c2c(nc3ccccc13)CCCC2O (centres undefined) | 2.05 | –
CN(C)C(=O)Oc1ccc[n+](C)c1 | -4.44 | –
CCCC(=O)Nc1ccc(O)c(C(C)=O)c1 | 55.8 | –
Cc1ccc(C)n1C1C(=O)N(Cc2ccc(C(C)C)cc2)c2ccc(OC(F)(F)F)cc21 (centres undefined) | – | active: 15.8 µM
CC(=O)Nc1ccc(S(=O)(=O)Nc2cc(C)on2)cc1 | -30.5 | –
O=C(O)CP(=O)(O)O | 6.21 | –
Cc1cc(C)nc(SCC(=O)Nc2ccccc2C(N)=O)n1 | – | active: 50.1 µM
Cc1ccc(N(CC2=NCCN2)c2cccc(O)c2)cc1 | -27.1 | –
S=C(NCCc1ccccc1)N1CCC2CC1c1cc(-c3ccc4c(c3)OCO4)ccc12 (centres undefined) | – | active: 28.2 µM
Cc1c(Cl)cccc1Nc1ccccc1C(=O)O | 5.18 | –

SMILES | activity change, negative = inhibition [%] | Potency
c1ccc(C(O[C@H]2CCCN(CCc3ccc4c(c3)OCO4)C2)c2ccccc2)cc1 | 28.6 | –
c1coc(-c2cc3nc(NCc4ccc5c(c4)OCO5)ccn3n2)c1 | – | active: 31.6 µM
Clc1ccccc1CSc1nnc(-c2ccco2)c(-c2ccco2)n1 | – | active: 3.55 µM
C/C(=C(\CCO)SS/C(CCO)=C(\C)N(C=O)Cc1cnc(C)nc1N)N(C=O)Cc1cnc(C)nc1N | 12.8 | –
C=C1c2ccccc2O[C@H](C(=O)OCC)[C@@H]1C1CCCCC1 | – | active: 20 µM
Clc1ccc2c(c1)C(N1CCNCC1)=Nc1ccccc1O2 | -10.5 | –
CCCCC/C(C=O)=C\c1ccccc1 | -46.5 | –
OCCN1CCN(CCCN2c3ccccc3Sc3ccc(C(F)(F)F)cc32)CC1 | -0.486 | –
c1ccc(CC2=NCCN2)cc1 | -20.1 | –
CCCC(=O)c1cc(O)c(O)cc1O | – | active: 1.65 µM
Oc1c(Br)cc(Br)c2cccnc12 | 1.24 | –
Nc1nc(=O)n([C@@H]2O[C@H](CO)[C@@H](O)[C@@H]2F)cc1I | 15.7 | –
O=C(NOCC1CC1)c1ccc(F)c(F)c1Nc1ccc(I)cc1Cl | -0.0857 | –
CC1(C)S[C@@H]2[C@H](N=CN3CCCCCC3)C(=O)N2[C@H]1C(=O)O | -49.6 | –
CS(=O)(=O)c1ccc([C@@H](O)[C@@H](CF)NC(=O)C(Cl)Cl)cc1 | -31.4 | –
O=c1[nH]sc2cc(Cl)ccc12 | 1.9 | –
O=C(O)Cn1c(C(=O)Nc2nc(-c3ccccc3Cl)cs2)cc2ccccc21 | 23.5 | –
Nc1ccc(S(=O)(=O)NC(=O)c2ccccc2)cc1 | -1.83 | –
C=C(CC)C(=O)c1ccc(OCC(=O)O)c(Cl)c1Cl | -16.5 | –
CCCOC(C(=O)OC1CCN(C)CC1)(c1ccccc1)c1ccccc1 | 13.8 | –
C1N2CN3CN1CN(C2)C3 | 4.18 | –

In a second layout: results already given.
SMILES,"activity change, negative = inhibition [%]",Potency
C/C(=C(\CCO)SS/C(CCO)=C(\C)N(C=O)Cc1cnc(C)nc1N)N(C=O)Cc1cnc(C)nc1N,12.8,–
C=C1c2ccccc2O[C@H](C(=O)OCC)[C@@H]1C1CCCCC1,–,active: 20 µM

Additional entries.

SMILES | activity change, negative = inhibition [%] | Potency
COc1cccc(CCc2ccccc2OCC(CN(C)C)OC(=O)CCC(=O)O)c1 (centres undefined) | -26.5 | –
CC(C)OC(=O)C(C(=O)OC(C)C)=C1SC=CS1 | -32.7 | –
Cc1ncc([N+](=O)[O-])n1C | 15.1 | –
CCOc1ncc(F)c(=O)[nH]1 | 24.9 | –
COC(=O)C1=C(C)NC(COC(N)=O)=C(C(=O)OC(C)C)C1c1cccc(Cl)c1Cl (centres undefined) | 0.156 | –
Cc1cccc(C(=O)N=c2c(C#N)cc3c(=O)n4cccc(C)c4nc3n2Cc2ccco2)c1 | – | active: 35.5 µM
O=C1OC(c2ccc(O)cc2)(c2ccc(O)cc2)c2ccccc21 | -14.3 | –
COc1cc(C(=S)N2CCOCC2)ccc1O | -5.54 | –
COc1ccc(/C=N/NC(=O)c2ccncc2)cc1OC | 17.8 | –
Oc1ccc(C2CNCCc3c2cc(O)c(O)c3Cl)cc1 (centres undefined) | 6.75 | –
COc1ccc(CN2CCN(Cc3cccc(OC)c3OC)CC2)cc1 | – | active: 0.447 µM
CC(C(=O)O)c1cccc(Oc2ccccc2)c1 (centres undefined) | 52.4 | –
C[C@@H]1CN(CCCn2c3ccccc3c3ccccc32)C[C@H](C)N1 | 20.5 | –
C[C@@H](NCCCc1cccc(C(F)(F)F)c1)c1cccc2ccccc12 | – | active: 8.91 µM
CC[N+](C)(C)c1cccc(O)c1 | -10.9 | –
OC(Cn1cncn1)(Cn1cncn1)c1ccc(F)cc1F | 28.4 | –
CC(=O)Nc1ccccc1-c1c(C)nn2c1N(CCCc1ccccc1)CCC2 | – | active: 15.8 µM
Cc1cn[nH]c1 | 17.9 | –
OCCN1CCN(CC/C=C2/c3ccccc3Sc3ccc(C(F)(F)F)cc32)CC1 | 31.8 | –
NNc1c(F)c(F)c(Br)c(F)c1F | – | active: 12.6 µM
C[C@@H](O)[C@H]1C(=O)N2C(C(=O)O)=C([C@H]3CCCO3)S[C@H]12 | -32.2 | –
